Results published in publication PMC11009956, “Initial Primer Synthesis of a DNA Primase Monitored by Real-Time NMR Spectroscopy” (Journal of the American Chemical Society, 2024).

Legend:
[1] = molecular target: T1, pRN1 primase (functional primase) (Sulfolobus islandicus (plasmid pRN1)) (UniProt Q54324); test: NMR (1H-15N HSQC); settings: ATP + dGTP, 313 K; HBD titrations: 25 mM sodium phosphate pH 7.0, 75 mM NaCl, 10 mM MgCl2, 298 K, 0.1 mM HBD, HBD:DNA 1:1.1; solid-state NMR on sedimented complex at 278-309 K; recombinant protein; residues 40-370; single-stranded DNA
T1 sequence (looked up): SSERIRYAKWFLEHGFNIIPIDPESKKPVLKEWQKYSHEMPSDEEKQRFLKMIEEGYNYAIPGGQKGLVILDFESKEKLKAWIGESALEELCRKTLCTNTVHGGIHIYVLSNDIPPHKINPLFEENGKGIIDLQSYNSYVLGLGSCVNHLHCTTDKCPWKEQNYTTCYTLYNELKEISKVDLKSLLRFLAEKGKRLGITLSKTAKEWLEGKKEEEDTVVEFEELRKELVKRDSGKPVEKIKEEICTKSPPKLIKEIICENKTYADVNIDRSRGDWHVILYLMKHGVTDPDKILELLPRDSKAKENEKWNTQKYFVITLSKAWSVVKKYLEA

[2] = molecular target: T2, pRN1 primase helix-bundle domain (HBD) (Sulfolobus islandicus (plasmid pRN1)) (UniProt Q54324); test: NMR (1H-15N HSQC); settings: HBD titrations: 25 mM sodium phosphate pH 7.0, 75 mM NaCl, 10 mM MgCl2, 298 K, 0.1 mM HBD, HBD:DNA 1:1.1, solid-state NMR on sedimented complex at 278-309 K, recombinant protein, residues 256-370, single-stranded DNA
T2 sequence (looked up): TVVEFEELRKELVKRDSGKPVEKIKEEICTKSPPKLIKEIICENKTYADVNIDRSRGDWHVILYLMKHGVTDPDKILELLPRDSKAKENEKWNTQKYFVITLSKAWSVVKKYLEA

Measured: binding result

CTGTGCTCA [DNACT (GTG-motif template)]
binds: [1] | [2]; 2 ATP, 10 mM Mg2+, 298 K | [2]; ATP + GTP, 10 mM Mg2+, 298 K | [2]; ATP + GppCH2p (GTPC), 10 mM Mg2+, 298 K | [2]; ATP + GppNHp (GTPN), 10 mM Mg2+, 298 K | [2]; ATPC + dGTPC

The exact form of at least one protein or probe is not confirmed. At least one verdict was read from the data and is not stated in words by the source. Where a protein sequence is shown, tags need not be part of it.
